Assay results published in the supplement of paper PMC10849652.
Some of the results follow.

Amino acid sequences for entries named in this document (tags omitted). A change or cut given only in a name is not applied to a line headed by its entry.
UniProt P36406: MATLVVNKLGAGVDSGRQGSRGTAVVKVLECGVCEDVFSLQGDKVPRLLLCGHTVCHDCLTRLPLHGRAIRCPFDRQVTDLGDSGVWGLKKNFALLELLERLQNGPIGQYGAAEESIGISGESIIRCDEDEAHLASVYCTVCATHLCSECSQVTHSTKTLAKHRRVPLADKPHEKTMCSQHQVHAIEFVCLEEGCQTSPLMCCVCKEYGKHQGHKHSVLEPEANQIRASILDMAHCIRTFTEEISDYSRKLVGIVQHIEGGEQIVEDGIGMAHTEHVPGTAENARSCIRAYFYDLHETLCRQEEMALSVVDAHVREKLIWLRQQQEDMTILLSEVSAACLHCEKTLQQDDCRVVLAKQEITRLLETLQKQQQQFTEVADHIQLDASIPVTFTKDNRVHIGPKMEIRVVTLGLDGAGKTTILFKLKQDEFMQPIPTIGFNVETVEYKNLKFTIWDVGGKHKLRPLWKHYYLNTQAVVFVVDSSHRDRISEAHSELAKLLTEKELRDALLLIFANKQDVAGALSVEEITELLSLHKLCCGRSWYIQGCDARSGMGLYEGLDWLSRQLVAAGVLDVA
UniProt O95857: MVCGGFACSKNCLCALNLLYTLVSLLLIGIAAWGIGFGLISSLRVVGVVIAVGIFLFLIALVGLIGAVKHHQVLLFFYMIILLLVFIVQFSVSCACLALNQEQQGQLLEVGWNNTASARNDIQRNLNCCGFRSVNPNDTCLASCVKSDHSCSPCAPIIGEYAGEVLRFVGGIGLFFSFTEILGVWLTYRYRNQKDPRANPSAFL
UniProt Q12815: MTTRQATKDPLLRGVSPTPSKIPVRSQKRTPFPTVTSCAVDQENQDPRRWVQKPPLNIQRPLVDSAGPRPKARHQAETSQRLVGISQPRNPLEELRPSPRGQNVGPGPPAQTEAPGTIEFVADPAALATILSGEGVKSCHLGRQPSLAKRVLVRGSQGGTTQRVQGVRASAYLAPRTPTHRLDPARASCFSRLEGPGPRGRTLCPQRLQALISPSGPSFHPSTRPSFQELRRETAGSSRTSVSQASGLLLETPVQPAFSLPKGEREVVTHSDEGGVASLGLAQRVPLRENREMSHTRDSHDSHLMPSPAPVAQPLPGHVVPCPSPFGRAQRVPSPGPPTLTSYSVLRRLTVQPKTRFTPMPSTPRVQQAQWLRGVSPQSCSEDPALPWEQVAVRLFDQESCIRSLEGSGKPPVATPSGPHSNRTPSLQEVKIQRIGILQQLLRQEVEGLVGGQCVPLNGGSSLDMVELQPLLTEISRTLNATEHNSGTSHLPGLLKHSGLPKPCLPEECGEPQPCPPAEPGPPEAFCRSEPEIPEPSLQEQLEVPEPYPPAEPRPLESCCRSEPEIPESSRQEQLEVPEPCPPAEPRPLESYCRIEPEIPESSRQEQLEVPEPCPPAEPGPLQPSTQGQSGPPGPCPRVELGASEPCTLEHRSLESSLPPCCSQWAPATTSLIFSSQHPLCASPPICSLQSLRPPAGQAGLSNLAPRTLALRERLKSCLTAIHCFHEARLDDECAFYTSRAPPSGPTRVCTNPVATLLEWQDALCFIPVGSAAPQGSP
UniProt Q9Y5S1: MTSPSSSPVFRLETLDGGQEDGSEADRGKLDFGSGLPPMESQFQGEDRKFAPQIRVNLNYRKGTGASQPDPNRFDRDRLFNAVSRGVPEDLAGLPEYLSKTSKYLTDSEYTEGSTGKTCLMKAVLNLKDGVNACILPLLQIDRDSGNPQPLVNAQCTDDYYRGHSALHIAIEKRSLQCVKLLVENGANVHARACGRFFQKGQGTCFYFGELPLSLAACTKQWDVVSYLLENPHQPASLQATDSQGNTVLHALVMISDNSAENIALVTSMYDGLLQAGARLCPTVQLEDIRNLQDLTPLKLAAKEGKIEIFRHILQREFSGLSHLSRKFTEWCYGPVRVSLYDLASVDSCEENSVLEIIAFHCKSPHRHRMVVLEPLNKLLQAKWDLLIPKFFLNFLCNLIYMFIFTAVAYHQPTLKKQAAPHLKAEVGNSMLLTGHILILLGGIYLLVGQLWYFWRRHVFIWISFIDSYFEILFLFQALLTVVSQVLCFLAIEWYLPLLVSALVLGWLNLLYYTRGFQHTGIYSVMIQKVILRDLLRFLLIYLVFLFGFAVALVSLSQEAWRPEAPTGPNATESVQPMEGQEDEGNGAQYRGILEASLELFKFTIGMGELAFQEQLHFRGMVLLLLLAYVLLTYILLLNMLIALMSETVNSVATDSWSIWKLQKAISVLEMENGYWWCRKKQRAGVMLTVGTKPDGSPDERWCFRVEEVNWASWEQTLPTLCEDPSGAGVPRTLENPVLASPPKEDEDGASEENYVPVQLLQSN
UniProt Q16762: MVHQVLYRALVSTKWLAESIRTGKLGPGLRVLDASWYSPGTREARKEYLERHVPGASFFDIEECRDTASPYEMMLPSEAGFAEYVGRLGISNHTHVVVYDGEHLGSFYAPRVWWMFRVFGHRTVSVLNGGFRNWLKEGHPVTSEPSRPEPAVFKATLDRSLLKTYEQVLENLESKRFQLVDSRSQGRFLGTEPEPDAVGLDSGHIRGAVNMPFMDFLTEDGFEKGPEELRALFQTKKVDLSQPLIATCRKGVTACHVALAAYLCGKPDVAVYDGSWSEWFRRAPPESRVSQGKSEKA
UniProt Q12933: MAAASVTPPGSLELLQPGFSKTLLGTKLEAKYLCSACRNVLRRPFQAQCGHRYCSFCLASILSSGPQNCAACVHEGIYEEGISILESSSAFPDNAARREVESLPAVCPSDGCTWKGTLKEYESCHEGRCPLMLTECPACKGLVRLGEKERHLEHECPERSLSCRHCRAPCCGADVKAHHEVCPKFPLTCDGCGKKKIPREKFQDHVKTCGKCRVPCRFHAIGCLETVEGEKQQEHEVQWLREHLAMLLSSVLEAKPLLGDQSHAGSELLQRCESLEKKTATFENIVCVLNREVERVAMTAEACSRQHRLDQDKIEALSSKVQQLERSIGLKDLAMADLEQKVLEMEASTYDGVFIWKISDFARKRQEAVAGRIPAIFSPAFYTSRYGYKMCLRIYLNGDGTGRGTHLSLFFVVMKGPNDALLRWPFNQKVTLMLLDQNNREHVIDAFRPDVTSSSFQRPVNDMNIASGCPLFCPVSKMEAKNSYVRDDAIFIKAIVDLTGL
UniProt O00635: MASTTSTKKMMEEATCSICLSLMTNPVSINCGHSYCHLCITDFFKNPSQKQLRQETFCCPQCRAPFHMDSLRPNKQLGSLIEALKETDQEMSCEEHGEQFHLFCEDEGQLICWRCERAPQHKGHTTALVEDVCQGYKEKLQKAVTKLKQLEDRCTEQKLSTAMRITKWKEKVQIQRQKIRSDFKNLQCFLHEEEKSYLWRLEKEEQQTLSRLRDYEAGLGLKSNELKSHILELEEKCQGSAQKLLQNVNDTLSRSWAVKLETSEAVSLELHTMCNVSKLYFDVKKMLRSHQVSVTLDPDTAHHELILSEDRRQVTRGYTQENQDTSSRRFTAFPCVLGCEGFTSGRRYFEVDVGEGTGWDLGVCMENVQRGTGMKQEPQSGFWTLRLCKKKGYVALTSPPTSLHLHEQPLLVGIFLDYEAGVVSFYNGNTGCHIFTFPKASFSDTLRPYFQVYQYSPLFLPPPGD
UniProt Q15642: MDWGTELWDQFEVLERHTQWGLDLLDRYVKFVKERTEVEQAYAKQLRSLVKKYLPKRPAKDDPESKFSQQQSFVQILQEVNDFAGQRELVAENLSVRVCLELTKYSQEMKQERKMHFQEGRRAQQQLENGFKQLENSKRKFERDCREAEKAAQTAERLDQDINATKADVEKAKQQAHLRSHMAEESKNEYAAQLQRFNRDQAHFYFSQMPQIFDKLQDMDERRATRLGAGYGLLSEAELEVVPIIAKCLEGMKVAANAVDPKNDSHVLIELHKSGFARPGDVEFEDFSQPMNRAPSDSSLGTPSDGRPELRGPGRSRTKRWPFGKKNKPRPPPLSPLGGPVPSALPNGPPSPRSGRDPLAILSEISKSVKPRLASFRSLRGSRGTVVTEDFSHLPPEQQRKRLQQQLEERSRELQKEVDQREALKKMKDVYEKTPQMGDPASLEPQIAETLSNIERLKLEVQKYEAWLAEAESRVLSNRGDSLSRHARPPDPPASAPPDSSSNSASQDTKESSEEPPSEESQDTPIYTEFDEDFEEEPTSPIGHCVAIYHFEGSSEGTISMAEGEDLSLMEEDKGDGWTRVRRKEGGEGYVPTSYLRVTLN
UniProt Q6PGP7, whole entry, looked up: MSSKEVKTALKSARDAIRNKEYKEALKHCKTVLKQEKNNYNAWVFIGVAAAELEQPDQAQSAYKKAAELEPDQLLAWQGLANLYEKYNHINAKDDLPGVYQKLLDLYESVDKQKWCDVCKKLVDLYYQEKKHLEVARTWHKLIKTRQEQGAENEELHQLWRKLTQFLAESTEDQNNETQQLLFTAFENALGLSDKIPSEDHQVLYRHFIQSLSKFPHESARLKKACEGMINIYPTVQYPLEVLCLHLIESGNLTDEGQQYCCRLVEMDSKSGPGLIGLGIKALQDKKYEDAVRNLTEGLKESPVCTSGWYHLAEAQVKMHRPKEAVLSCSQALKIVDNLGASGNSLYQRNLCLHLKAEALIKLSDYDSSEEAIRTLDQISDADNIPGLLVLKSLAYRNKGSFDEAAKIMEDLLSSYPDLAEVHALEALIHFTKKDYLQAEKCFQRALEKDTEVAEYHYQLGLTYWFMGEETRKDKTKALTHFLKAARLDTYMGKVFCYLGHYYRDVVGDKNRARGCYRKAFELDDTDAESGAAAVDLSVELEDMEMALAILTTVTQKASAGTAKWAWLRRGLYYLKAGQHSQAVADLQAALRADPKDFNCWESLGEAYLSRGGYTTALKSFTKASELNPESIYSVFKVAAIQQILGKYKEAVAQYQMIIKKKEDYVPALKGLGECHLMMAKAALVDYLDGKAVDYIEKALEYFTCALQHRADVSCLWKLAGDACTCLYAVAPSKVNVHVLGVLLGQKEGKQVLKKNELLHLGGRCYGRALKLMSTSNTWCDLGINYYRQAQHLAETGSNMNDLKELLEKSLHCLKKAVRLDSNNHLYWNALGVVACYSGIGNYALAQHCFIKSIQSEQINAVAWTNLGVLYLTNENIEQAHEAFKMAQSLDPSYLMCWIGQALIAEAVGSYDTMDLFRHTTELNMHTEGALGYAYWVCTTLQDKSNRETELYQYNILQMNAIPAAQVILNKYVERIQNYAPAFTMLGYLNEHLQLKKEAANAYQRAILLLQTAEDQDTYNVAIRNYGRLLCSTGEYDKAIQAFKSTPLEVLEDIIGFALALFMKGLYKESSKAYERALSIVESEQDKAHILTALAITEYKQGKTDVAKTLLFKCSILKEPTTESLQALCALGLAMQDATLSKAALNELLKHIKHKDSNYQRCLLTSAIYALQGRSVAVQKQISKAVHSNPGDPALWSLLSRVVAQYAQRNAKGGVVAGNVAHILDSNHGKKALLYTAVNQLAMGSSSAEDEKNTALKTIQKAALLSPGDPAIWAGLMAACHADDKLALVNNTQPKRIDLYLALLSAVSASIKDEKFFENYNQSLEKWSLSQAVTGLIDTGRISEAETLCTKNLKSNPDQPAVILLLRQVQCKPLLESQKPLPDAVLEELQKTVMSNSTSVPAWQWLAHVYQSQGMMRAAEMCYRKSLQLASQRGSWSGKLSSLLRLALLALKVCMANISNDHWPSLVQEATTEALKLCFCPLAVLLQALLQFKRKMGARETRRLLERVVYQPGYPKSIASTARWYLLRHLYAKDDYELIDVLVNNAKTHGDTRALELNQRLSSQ
UniProt Q99598: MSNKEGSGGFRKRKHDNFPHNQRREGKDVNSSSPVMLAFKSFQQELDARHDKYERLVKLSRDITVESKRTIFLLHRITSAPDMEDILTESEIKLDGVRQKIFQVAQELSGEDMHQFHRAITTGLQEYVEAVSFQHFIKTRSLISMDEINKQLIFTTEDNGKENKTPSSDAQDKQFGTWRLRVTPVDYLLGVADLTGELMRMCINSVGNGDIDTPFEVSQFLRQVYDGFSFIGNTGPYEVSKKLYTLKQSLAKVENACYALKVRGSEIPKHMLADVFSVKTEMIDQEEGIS
UniProt Q9BUZ4: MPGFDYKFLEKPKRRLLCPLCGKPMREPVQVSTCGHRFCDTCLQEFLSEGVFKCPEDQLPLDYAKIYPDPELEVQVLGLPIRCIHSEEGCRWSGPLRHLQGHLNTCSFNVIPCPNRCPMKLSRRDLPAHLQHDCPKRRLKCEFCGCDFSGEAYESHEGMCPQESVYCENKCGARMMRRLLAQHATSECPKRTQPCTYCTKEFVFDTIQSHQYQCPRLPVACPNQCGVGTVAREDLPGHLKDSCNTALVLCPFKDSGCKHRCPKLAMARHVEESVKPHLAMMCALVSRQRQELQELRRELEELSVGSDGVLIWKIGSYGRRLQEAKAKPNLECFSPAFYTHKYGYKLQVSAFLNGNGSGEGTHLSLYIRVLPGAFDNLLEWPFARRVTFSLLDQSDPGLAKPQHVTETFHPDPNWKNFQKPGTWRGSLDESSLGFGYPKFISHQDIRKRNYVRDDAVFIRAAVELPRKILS

Experiments:
Assay in all cases: log2 fold change, soluble protein after heating vs DMSO (PISA); higher = thermal stabilisation; K562 lysate, 10 uM; active = over 0.2 and 3.5 SD of the protein, either way, in both replicates (recomputed)
ibrutinib = compound: C=CC(=O)N1CCC[C@@H](n2nc(-c3ccc(Oc4ccccc4)cc3)c3c(N)ncnc32)C1 [ibrutinib]
Method in brief: (§1)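 The values are log-two fold changes in thermal stability compared with solvent controls and come from duplicates. They were obtained by TMTpro 16plex LC-MS/MS, with channel sums equalised, on the supernatant after 21,000xg for 90 min. That supernatant came from crude K562 extract at 1 mg/mL protein treated with 10 μM compound for 30 min, heated for 3 min across 48°C-58°C, pooled and brought to 0.5% NP-40 at 4°C.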

[1] = compound: CC(=O)c1cnc2ccc(-c3cc(Cl)c(O)c(Cl)c3)nc2c1N[C@H]1CC[C@H](CN(C)C)CC1
Method in brief: as §1

ralimetinib = compound: CC(C)(C)Cn1c(N)nc2ccc(-c3[nH]c(C(C)(C)C)nc3-c3ccc(F)cc3)nc21 [ralimetinib]
Method in brief: as §1

[2] = compound: CC(C)(O)CC(=O)NCCn1ccc2ncnc(Nc3ccc(Oc4cccc(C(F)(F)F)c4)c(Cl)c3)c21
Method in brief: as §1

[3] = compound: CC(C)C1=C2N=C(C=C(N2N=C1)NCC3=CC=CC=C3)NCCCCCCN
Method in brief: as §1

[4] = compound: CC1=C(C(CC(=O)N1)C2=CC=C(C=C2)C(F)(F)F)C(=O)NC3=C(C=C4C(=C3)C=NN4)F
Method in brief: as §1

[5] = compound: CC1=C(C2=C(C=C1)C(=O)C3=CC=CC=C3N2CCCN)C
Method in brief: as §1

[6] = compound: CC1=C(C=C(C=C1)NC(=O)C2=CC(=CC=C2)C(C)(C)C#N)NC3=CC4=C(C=C3)N=CN(C4=O)C
Method in brief: as §1

[7] = compound: CC1=C(C=C(C=C1)NC(=O)C2=CC(=CC=C2)N(C)C)NC(=O)C3=CC=C(C=C3)O
Method in brief: as §1

[8] = compound: CC1=CC=C(C=C1)SC2=C3C=C(SC3=CN=C2)C(=O)N
Method in brief: as §1

Measured: log2 fold change

TRIM23 (UniProt P36406)
inactive: ibrutinib -0.031 | [1] 0.061 | ralimetinib -0.102 | [2] -0.085 | [3] -0.056 | [4] 0.026 | [5] -0.065 | [6] 0.099 | [7] -0.22 | [8] -0.022

TRIP12 isoform 2 (UniProt Q14669)
inactive: ibrutinib 0 | [1] -0.031 | ralimetinib 0.109 | [2] 0.044 | [3] -0.028 | [4] -0.004 | [5] 0.066 | [6] 0.058 | [7] -0.012 | [8] 0.031

TRMT10C (UniProt Q7L0Y3)
inactive: ibrutinib 0.013 | [1] -0.018 | ralimetinib 0.032 | [2] 0.03 | [3] 0.019 | [4] 0.001 | [5] -0.007 | [6] -0.054 | [7] 0.024 | [8] -0.016

TSPAN13 (UniProt O95857)
inactive: ibrutinib 0.018 | [1] -0.001 | ralimetinib -0.048 | [2] -0.044 | [3] -0.083 | [4] 0.102 | [5] 0.036 | [6] 0.088 | [7] 0 | [8] -0.043

TSEN2 (UniProt Q8NCE0)
inactive: ibrutinib -0.001 | [1] 0.057 | ralimetinib 0.122 | [2] -0.049 | [3] -0.11 | [4] 0.017 | [5] -0.066 | [6] -0.002 | [7] 0.085 | [8] 0.021

TTC27 (UniProt Q6P3X3)
inactive: ibrutinib -0.025 | [1] 0.017 | ralimetinib -0.012 | [2] 0.046 | [3] 0.02 | [4] 0 | [5] -0.011 | [6] -0.012 | [7] 0.034 | [8] 0.042

TSR2 (UniProt Q969E8)
inactive: ibrutinib 0.011 | [1] -0.026 | ralimetinib 0.004 | [2] -0.039 | [3] -0.014 | [4] 0.024 | [5] -0.068 | [6] -0.02 | [7] 0.001 | [8] -0.009

TROAP (UniProt Q12815)
inactive: ibrutinib 0.191 | [1] -0.096 | ralimetinib 0.042 | [2] -0.02 | [3] 0.037 | [4] 0.011 | [5] 0.02 | [6] -0.006 | [7] 0.08 | [8] -0.25

TRAPPC2L (UniProt H3BQQ8)
inactive: ibrutinib -0.171

TRIM44 (UniProt Q96DX7)
inactive: ibrutinib 0.031 | [1] 0.124 | ralimetinib 0.032 | [2] -0.013 | [3] -0.037 | [4] -0.021 | [5] -0.004 | [6] -0.044 | [7] 0.022 | [8] 0.086

TSPYL1 (UniProt Q9H0U9)
inactive: ibrutinib -0.084 | [1] -0.066 | ralimetinib -0.022 | [2] -0.042 | [3] 0.035 | [4] 0.029 | [5] -0.085 | [6] -0.023 | [7] -0.022 | [8] 0.085

TSPO (UniProt P30536)
inactive: ibrutinib 0.033 | [1] 0.002 | ralimetinib 0.062 | [2] -0.037 | [3] -0.031 | [4] -0.01 | [5] -0.022 | [6] 0 | [7] 0.039 | [8] 0.002

TRAM1 (UniProt Q15629)
inactive: ibrutinib -0.042 | [1] 0.003 | ralimetinib 0.048 | [2] -0.189 | [3] -0.038 | [4] 0.065 | [5] -0.067 | [6] 0.028 | [7] -0.026 | [8] 0.018

TRPV2 (UniProt Q9Y5S1)
inactive: ibrutinib 0.013 | [1] -0.008 | ralimetinib -0.009 | [2] -0.008 | [3] -0.022 | [4] -0.009 | [5] -0.011 | [6] -0.006 | [7] -0.016 | [8] -0.008

TST (UniProt Q16762)
inactive: ibrutinib 0.038 | [1] 0.003 | ralimetinib -0.099 | [2] 0.028 | [3] 0 | [4] 0.062 | [5] 0.006 | [6] -0.012 | [7] 0.064 | [8] -0.007

TRIM33 (UniProt H0Y612)
inactive: ibrutinib 0.016 | [1] -0.003 | ralimetinib 0.135 | [2] -0.084 | [3] 0.068 | [4] -0.099 | [5] -0.004 | [6] -0.031 | [7] -0.009 | [8] -0.012

TRAF2 isoform 2 (UniProt Q12933)
inactive: ibrutinib -0.026 | [1] -0.002 | ralimetinib 0.022 | [2] -0.022 | [3] -0.051 | [4] -0.004 | [5] -0.028 | [6] 0.029 | [7] -0.009 | [8] -0.006

TTC9C (UniProt Q8N5M4)
inactive: ibrutinib 0.039 | [1] 0.011 | ralimetinib 0.026 | [2] -0.047 | [3] 0.013 | [4] -0.025 | [5] 0.003 | [6] -0.076 | [7] 0.02 | [8] 0.03

TRIM38 (UniProt O00635)
inactive: ibrutinib -0.049 | [1] -0.025 | ralimetinib -0.016 | [2] 0.012 | [3] -0.013 | [4] -0.023 | [5] 0.036 | [6] 0.018 | [7] 0.059 | [8] -0.034

TRIP10 (UniProt Q15642)
inactive: ibrutinib 0.031 | [1] -0.018 | ralimetinib -0.02 | [2] 0.025 | [3] -0.019 | [4] -0.024 | [5] -0.025 | [6] 0.014 | [7] 0.011 | [8] 0

TRAF3 (UniProt Q13114)
inactive: ibrutinib 0.175 | [1] 0.045 | ralimetinib 0.026 | [2] 0.026 | [3] 0.07 | [4] 0.087 | [5] -0.109 | [6] 0.022 | [7] -0.043 | [8] -0.018

TRRAP (UniProt Q9Y4A5)
inactive: ibrutinib -0.031 | [1] -0.009 | ralimetinib 0.045 | [2] -0.036 | [3] -0.02 | [4] 0.04 | [5] -0.012 | [6] -0.018 | [7] -0.011 | [8] 0.027

TTC37 (UniProt Q6PGP7)
inactive: ibrutinib 0.012 | [1] 0.047 | ralimetinib -0.024 | [2] 0.012 | [3] -0.012 | [4] -0.019 | [5] -0.188 | [6] 0.154 | [7] -0.043 | [8] -0.15

TRIM32 (UniProt Q13049)
inactive: ibrutinib 0.036 | [1] -0.01 | ralimetinib 0.009 | [2] -0.094 | [3] -0.032 | [4] -0.007 | [5] 0.434 | [6] -0.012 | [7] 0.277 | [8] 0.047

2 successive entries already listed:
TSPO (UniProt P30536)
inactive: ibrutinib 0.033 | [1] 0.002 | ralimetinib 0.062 | [2] -0.037 | [3] -0.031 | [4] -0.01 | [5] -0.022 | [6] 0 | [7] 0.039 | [8] 0.002

TRAM1 (UniProt Q15629)
inactive: ibrutinib -0.042 | [1] 0.003 | ralimetinib 0.048 | [2] -0.189 | [3] -0.038 | [4] 0.065 | [5] -0.067 | [6] 0.028 | [7] -0.026 | [8] 0.018

Later entries

TRMU (UniProt O75648)
inactive: ibrutinib -0.012 | [1] -0.022 | ralimetinib 0.003 | [2] -0.06 | [3] 0.158 | [4] 0.058 | [5] 0.027 | [6] -0.002 | [7] 0.006 | [8] 0.003

TRIM11 (UniProt Q96F44)
inactive: ibrutinib 0.008 | [1] 0.05 | ralimetinib -0.009 | [2] -0.049 | [3] -0.011 | [4] -0.067 | [5] -0.04 | [6] 0.005 | [7] -0.014 | [8] 0.036

TRIM28 (UniProt Q13263)
inactive: ibrutinib 0.008 | [1] 0.002 | ralimetinib -0.003 | [2] 0.003 | [3] 0.007 | [4] -0.023 | [5] 0 | [6] -0.017 | [7] -0.001 | [8] 0.003

TRIM24 (UniProt O15164)
inactive: ibrutinib 0.078 | [1] 0.056 | ralimetinib -0.03 | [2] 0.051 | [3] 0.019 | [4] -0.043 | [5] -0.021 | [6] -0.021 | [7] 0.076 | [8] -0.067

TSNAX (UniProt Q99598)
inactive: ibrutinib 0.014 | [1] 0.002 | ralimetinib -0.021 | [2] 0.009 | [3] -0.006 | [4] 0.006 | [5] -0.007 | [6] 0.015 | [7] 0.003 | [8] -0.011

TRAF4 (UniProt Q9BUZ4)
inactive: ibrutinib -0.154 | [1] -0.085 | ralimetinib 0.066 | [2] -0.074 | [3] -0.01 | [4] -0.01 | [5] 0.002 | [6] 0.035 | [7] 0.023 | [8] 0.022
